Measured values: the supplement of paper PMC12889115
The other results are listed elsewhere or left out. Values are raw readings; no control value is given beside them.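 First-pass screen: polymyxin B was added at a level that permeabilizes the Salmonella outer membrane while sparing the inner membrane. DMSO wells, with and without polymyxin B, defined maximum growth. Because plates differed from one another, each plate's data were ranked separately and the compounds with the lowest OD600 were carried forward as hits.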

Tested on: Salmonella enterica serovar Typhimurium SL1344
Assay: bacterial growth OD600 after 18 h with compound and polymyxin B; higher = more bacterial growth (less inhibition)
Details: 50 µM, Mueller-Hinton broth

| Compound | bacterial growth OD600 (polymyxin B 0.75 µg/mL) | bacterial growth OD600 (polymyxin B 1 µg/mL) |
| --- | --- | --- |
| Cc1cnc(SCCN2CCOCC2)nc1C1CCCN(C(=O)/C=C/c2ccc(F)cc2)C1 (stereo unspecified) | 0.932 | – |
| Cc1cccnc1N1CCC(C2CCN(Cc3cccnc3)CC2)C1 (stereo unspecified) | 0.764 | – |
| CSc1nc(C(=O)NCc2nc(-c3cccc(NC(=O)C4CCCN(C)C4)c3)oc2C)cs1 (stereo unspecified) | 0.739 | – |
| COc1ccc(C(=O)NC2CC2)c(OC2CCN(CC(C)c3ccccc3)CC2)c1 (stereo unspecified) | – | 1.28 |
| Cc1cc(C)n(Cc2cc(C(=O)N(C)CC3Cc4ccccc4O3)n[nH]2)n1 (stereo unspecified) | – | 0.935 |
| Cc1nonc1CN(C)C(=O)CC1(c2ccccc2)CC(=O)N(CCCOc2cccnc2)C1=O (stereo unspecified) | 0.83 | – |
| COc1ccc(CN2CCN(Cc3ccc4c(c3)OCCO4)CC2CCO)cc1C (stereo unspecified) | – | 1.02 |
| COc1ccccc1C1CCCN1C(=O)C1(N(C)C)Cc2ccccc2C1 (stereo unspecified) | – | 0.808 |
| Cc1cnc(C)c(N2CCN(Cc3nc(-c4ccccc4)no3)CC2)n1 | – | 0.894 |
| COc1cccc(CCC2CCCN(C(=O)c3csc(C(C)=O)c3)C2)c1 (stereo unspecified) | 0.101 | – |
| COc1ccc(CCN2CC(NC(=O)c3ccsc3)CC2=O)cc1 (stereo unspecified) | – | 0.887 |
| O=C(c1csc(-c2cccs2)n1)N1CCCC(CO)(Cc2cccc(Cl)c2)C1 (stereo unspecified) | – | -0.001 |
| c1ccc(COC2CCCN(Cc3nc(Cc4ccccc4)no3)C2)cc1 (stereo unspecified) | – | 0.922 |
| COc1cccc(NC(=O)CCC2CCN(C(=O)Nc3ccccc3SC)CC2)c1 | – | 0.835 |
| Cc1ccc2[nH]c(C(=O)N3CC[C@@H](N4CCC(O)CC4)[C@H](O)C3)c(C)c2c1 | – | 0.935 |
| C=CCCC(=O)N1CCCC(CCc2ccc(F)c(F)c2)C1 (stereo unspecified) | 0.007 | – |

| Compound | bacterial growth OD600 (polymyxin B 0.75 µg/mL) | bacterial growth OD600 (polymyxin B 1 µg/mL) |
| --- | --- | --- |
| COc1ccc2c(c1)OC(C)CN(CCC(=O)NCCSc1nncn1C)C2 (stereo unspecified) | 0.853 | – |
| CCOc1ccc2nc(N3CCCC(C(=O)NCCc4cnccn4)C3)nc(C)c2c1 (stereo unspecified) | 0.783 | – |
| CCn1nc(C)c(CNC(=O)c2ccc(OC3CCN(C(=O)COC)CC3)cc2)c1C | – | 0.985 |
| CCC1CN(Cc2ccc(O)c(Cl)c2)Cc2cc(OC)ccc2O1 (stereo unspecified) | 0.009 | – |
| CCn1cc(CN2C[C@H]3OC(=O)N(CCCc4ccc(F)cc4)[C@H]3C2)cn1 | 0.816 | – |
| O=C(c1ccc(-c2ccccc2)cc1)N1CCC2(CC1)CC2C(=O)N1CCN(c2ccccn2)CC1 (stereo unspecified) | 0.866 | – |
| CC(=O)NCCC(=O)N1CCC(C2CCN(Cc3ccc(Cl)cc3)C2)CC1 (stereo unspecified) | 0.993 | – |
| C=CCCC(=O)N1CCC2(CCCN(Cc3cccc(F)c3F)C2)C1 (stereo unspecified) | – | 1 |
| CCCS(=O)(=O)NCc1cccnc1Oc1ccc(C)nc1 | – | 0.921 |
| Cc1ccccc1CC(C1CCN(C(=O)c2ccc(F)cc2F)CC1)N(C)C(=O)Cn1cccn1 (stereo unspecified) | 0.826 | – |
| COc1ccccc1CCNC(=O)Cc1ccc(N2CCC(NC3Cc4ccccc4C3)CC2)cc1 | 0.785 | – |
| O=C1CCC(CCC(=O)N2CCC(Oc3ccccc3Cl)CC2)(Cc2ccc(F)cc2)N1 (stereo unspecified) | 0.076 | – |
| CN(Cc1ccccc1)C1(C(=O)NCCn2cccn2)Cc2ccccc2C1 | – | 0.003 |
| Cc1cc(CN(C)C(=O)c2cccc(OC3CCN(C4CCCC4)CC3)c2)n[nH]1 | – | 0.908 |
| COc1ccc(F)c(CN2CCCC(O)(CN3CCNC(=O)C3(C)C)C2=O)c1 (stereo unspecified) | – | 0.913 |

2 of these compounds, reformatted.
Cc1ccccc1CC(C1CCN(C(=O)c2ccc(F)cc2F)CC1)N(C)C(=O)Cn1cccn1 (stereo unspecified)
  bacterial growth OD600 (polymyxin B 0.75 µg/mL): 0.826
COc1ccccc1CCNC(=O)Cc1ccc(N2CCC(NC3Cc4ccccc4C3)CC2)cc1
  bacterial growth OD600 (polymyxin B 0.75 µg/mL): 0.785
